The list does not hold the whole screen: it is rich in T/C values a quarter to a half above the control, in often repeated tests (any T/C) and in doses without a T/C. Further doses and runs are listed elsewhere. T/C gives the treated animals as a percentage of the vehicle group. Some entries give survivors of the animals treated and no T/C: the source files T/C as zero there, which appears to mark a toxic dose or a test without result, not a measured value. Some doses without a T/C left all or most animals alive at the check, yet need not have been tolerated: the source hardly ever lists a survival T/C far under the control, and the zero likely stands for such cases as well. Survivors were counted at the toxicity check, usually on the fifth day, unless a day is given; later deaths do not show. Schedule codes are those of the source, read here as Q, the interval in days (D) or hours (H), X, the number of doses. Some structures stand for samples that the source files as different forms (salt, stereo form or complex); doses refer to the form tested.
System: L1210 leukemia ip in BDF1 mice, survival T/C
Assay: NCI In Vivo Anticancer Drug Screen. Data for tumor model L1210 Leukemia (intraperitoneal) in B6D2F1 (BDF1) mice
Settings: T/C endpoint: mean survival time, higher T/C = longer survival
[1] = dose: 400.0 mg/kg/injection, schedule: Q04DX002 (ip), vehicle: Klucel (hydroxypropylcellulose) (HPC)
[2] = dose: 400.0 mg/kg/injection, schedule: Q04DX003 (ip), vehicle: saline
[3] = dose: 100.0 mg/kg/injection, schedule: Q04DX003 (ip), vehicle: saline
[4] = dose: 200.0 mg/kg/injection, schedule: Q04DX003 (ip), vehicle: saline
[5] = dose: 400.0 mg/kg/injection, schedule: Q01DX009 (ip), vehicle: Klucel (hydroxypropylcellulose) (HPC)
[6] = dose: 200.0 mg/kg/injection, schedule: Q01DX009 (ip), vehicle: saline with Tween-80
[7] = dose: 150.0 mg/kg/injection, schedule: Q01DX001 (ip), vehicle: saline
[8] = dose: 300.0 mg/kg/injection, schedule: Q01DX001 (ip), vehicle: saline
[9] = dose: 75.0 mg/kg/injection, schedule: Q01DX001 (ip), vehicle: acetone
[10] = dose: 150.0 mg/kg/injection, schedule: Q01DX001 (ip), vehicle: acetone
[11] = dose: 300.0 mg/kg/injection, schedule: Q01DX001 (ip), vehicle: acetone
[12] = dose: 400.0 mg/kg/injection, schedule: Q01DX001 (ip), vehicle: saline with Tween-80
[13] = dose: 100.0 mg/kg/injection, schedule: Q01DX009 (ip), vehicle: Klucel (hydroxypropylcellulose) (HPC)
[14] = dose: 200.0 mg/kg/injection, schedule: Q01DX009 (ip), vehicle: Klucel (hydroxypropylcellulose) (HPC)
[15] = dose: 400.0 mg/kg/injection, schedule: Q04DX003 (ip), vehicle: Klucel (hydroxypropylcellulose) (HPC)
[16] = dose: 400.0 mg/kg/injection, schedule: Q04DX003 (ip), vehicle: saline with Tween-80

NC(CSS(=O)(=O)O)=NCCCc1ccccc1 was tested, and the survivor count (dose: 50.0 mg/kg/injection, schedule: Q04DX002 (ip), vehicle: Klucel (hydroxypropylcellulose) (HPC)) was 0 of 3, the survivor count (dose: 100.0 mg/kg/injection, schedule: Q04DX002 (ip), vehicle: Klucel (hydroxypropylcellulose) (HPC)) was 3 of 3 and the survivor count (dose: 200.0 mg/kg/injection, schedule: Q04DX002 (ip), vehicle: Klucel (hydroxypropylcellulose) (HPC)) was 2 of 3. The survivor count [1] was 0 of 3.
In the case of CCN(CC)CCOC(=O)Nc1ccc(Cl)cc1, the survivor count [2] is reported as 4 of 6.
CCOC(=O)/C=C/C(=O)O.[Cu+2] was tested, and the survivor count (dose: 1.56 mg/kg/injection, schedule: Q04DX003 (ip), vehicle: saline) was 3 of 3, the survivor count (dose: 12.5 mg/kg/injection, schedule: Q04DX003 (ip), vehicle: saline) was 3 of 3 and the survivor count (dose: 25.0 mg/kg/injection, schedule: Q04DX003 (ip), vehicle: saline) was 1 of 3. The survivor count [3] was 0 of 4, the survivor count [4] was 0 of 4 and the survivor count [2] was 0 of 4.
With C=C(C)C1CCC2(C=O)CCC3(C)C(CCC4C5(C)CCC(OC6CCCCO6)C(C)(C)C5CCC43C)C12 (configuration not stated) the survivor count (dose: 50.0 mg/kg/injection, schedule: Q04DX002 (ip), vehicle: saline with Tween-80) was 3 of 3.
C=CCNC(=S)NCc1ccc(C)cc1 was tested, and the survivor count [5] was 0 of 6.
With Cc1cccc(C)c1NC(=S)NNC(=O)c1ccncc1 the survivor count [6] was 2 of 3.
With CCOC(=O)C1=CN=NC1=[N+]=[N-] the survivor count (dose: 40.0 mg/kg/injection, schedule: Q01DX001 (ip), vehicle: saline) was 0 of 6, the survivor count (dose: 75.0 mg/kg/injection, schedule: Q01DX001 (ip), vehicle: saline) was 0 of 6 and the survivor count [7] was 0 of 6. For the same compound, the survivor count [8] was 0 of 6.
In the case of O=S1(=O)OCc2ccccc21, the survivor count (dose: 200.0 mg/kg/injection, schedule: Q01DX009 (ip), vehicle: acetone) is reported as 6 of 6, the survivor count (dose: 400.0 mg/kg/injection, schedule: Q01DX001 (ip), vehicle: carboxymethylcellulose (CMC)) is reported as 0 of 6 and the survivor count [2] is reported as 2 of 6.
For O=C(O)C(F)(F)C(F)(F)C(F)(F)F.[Ag], the survivor count [9] was 3 of 6, the survivor count [10] was 0 of 6 and the survivor count [11] was 0 of 6.
In the case of CC(=O)OCCC(C)Nc1ccnc2cc(Cl)ccc12 (configuration not stated), the survivor count (dose: 80.0 mg/kg/injection, schedule: Q04DX003 (ip), vehicle: saline with Tween-80) is reported as 5 of 6.
In the case of CON1C(=O)c2ccccc2S1=O (configuration not stated), the survivor count [1] is reported as 0 of 3.
With CCN(CC)CCN(C)C the survivor count (dose: 400.0 mg/kg/injection, schedule: Q01DX009 (ip), vehicle: saline) was 0 of 6.
N#C/C(=C\c1cccc(N)c1)c1ccccc1 was tested, and the survivor count [12] was 3 of 6.
With CCCCN(C)N=Nc1n[nH]nc1C(N)=O the survivor count (dose: 500.0 mg/kg/injection, schedule: Q01DX001 (ip), vehicle: carboxymethylcellulose (CMC)) was 1 of 6.
In the case of Cc1cc(C(C)(CC(C)C)c2ccc(O)c(C)c2)ccc1O, the survivor count (dose: 200.0 mg/kg/injection, schedule: Q01DX009 (ip), vehicle: gum acacia) is reported as 6 of 6 and the survivor count (dose: 400.0 mg/kg/injection, schedule: Q01DX009 (ip), vehicle: gum acacia) is reported as 0 of 6.
With C1CCN2CC3CC(CN4CCCCC34)C2C1 (configuration not stated) the survivor count (dose: 80.0 mg/kg/injection, schedule: Q04DX003 (ip), vehicle: saline) was 0 of 6, the survivor count [3] was 0 of 6 and the survivor count [4] was 0 of 6. The survivor count [2] was 0 of 6.
With CCCCCCCCCCN=C(N)CSSCC(N)=NCCCCCCCCCC the survivor count (dose: 6.25 mg/kg/injection, schedule: Q04DX002 (ip), vehicle: saline with Tween-80) was 0 of 3, the survivor count (dose: 12.5 mg/kg/injection, schedule: Q04DX002 (ip), vehicle: saline with Tween-80) was 0 of 3 and the survivor count (dose: 25.0 mg/kg/injection, schedule: Q04DX002 (ip), vehicle: saline with Tween-80) was 0 of 3. The survivor count (dose: 100.0 mg/kg/injection, schedule: Q04DX002 (ip), vehicle: saline with Tween-80) was 0 of 3, the survivor count (dose: 200.0 mg/kg/injection, schedule: Q04DX002 (ip), vehicle: saline with Tween-80) was 0 of 3 and the survivor count (dose: 400.0 mg/kg/injection, schedule: Q04DX002 (ip), vehicle: saline with Tween-80) was 0 of 3.
C/C(=N/OC(=O)N(C)C)c1cc(Cl)ccc1Cl was tested, and the survivor count (dose: 400.0 mg/kg/injection, schedule: Q01DX001 (ip), vehicle: saline) was 3 of 6.
In the case of CC1CC(NC(=S)S)CC(C)(C)C1 (configuration not stated), the survivor count [13] is reported as 2 of 6, the survivor count [14] is reported as 4 of 6 and the survivor count [5] is reported as 2 of 6. For the same compound, the survivor count [15] was 2 of 6.
O=[N+]([O-])c1cc(Br)c(Br)cc1Br was tested, and the survivor count [5] was 4 of 6.
For CC(=O)Nc1ncnn1C(C)=O, the survivor count [2] was 3 of 6.
With CC(C)c1ccc2c(c1)CCC1C(C)(CN)CCCC21C (configuration not stated) (tested in a mixture with another compound) the survivor count (dose: 100.0 mg/kg/injection, schedule: Q01DX001 (ip), vehicle: saline with Tween-80) was 1 of 6, the survivor count (dose: 200.0 mg/kg/injection, schedule: Q01DX001 (ip), vehicle: saline with Tween-80) was 0 of 6 and the survivor count [12] was 0 of 6.
With CC(C)(O)C(Cl)(Cl)Cl the survivor count [15] was 0 of 6 and the survivor count [2] was 3 of 6.
Cn1c(Cc2ccccc2)nc(=O)c2ccccc21 was tested, and the survivor count [9] was 1 of 6, the survivor count [10] was 0 of 6 and the survivor count [11] was 0 of 6.
With O=C(Nc1ccc(F)cc1)c1cccc(C(=O)Nc2ccc(F)cc2)c1 the survivor count (dose: 200.0 mg/kg/injection, schedule: Q04DX003 (ip), vehicle: saline with Tween-80) was 6 of 6 and the survivor count [16] was 6 of 6.
In the case of Cc1[nH]nc(C(F)(F)F)c1N=NN1CCC(C(N)=O)CC1, the survivor count (dose: 150.0 mg/kg/injection, schedule: Q01DX001 (ip), vehicle: carboxymethylcellulose (CMC)) is reported as 5 of 6 and the survivor count (dose: 300.0 mg/kg/injection, schedule: Q01DX001 (ip), vehicle: carboxymethylcellulose (CMC)) is reported as 1 of 6.
CCN(CC)CC(Cl)CN(CC)CC was tested, and the survivor count [6] was 1 of 6 and the survivor count [16] was 1 of 6.
For CCCCCCCCCCCCCCCCCC[N+]1(C)CCOCC1, the survivor count (dose: 50.0 mg/kg/injection, schedule: Q01DX009 (ip), vehicle: Klucel (hydroxypropylcellulose) (HPC)) was 3 of 3, the survivor count [13] was 1 of 3 and the survivor count [14] was 0 of 3.
For NCCC1CNCCN1.[Cl][Pd]([Cl])([Cl])[Cl] (configuration not stated), the survivor count (dose: 200.0 mg/kg/injection, schedule: Q01DX001 (ip), vehicle: DMSO) was 1 of 3 and the survivor count (dose: 400.0 mg/kg/injection, schedule: Q01DX001 (ip), vehicle: DMSO) was 0 of 3.
In the case of c1cc[n+]2c(c1)-c1cccc[n+]1CC2, the survivor count (dose: 25.0 mg/kg/injection, schedule: Q01DX009 (ip), vehicle: saline) is reported as 6 of 6, the survivor count (dose: 50.0 mg/kg/injection, schedule: Q01DX009 (ip), vehicle: saline) is reported as 0 of 6 and the survivor count [3] is reported as 2 of 6. For the same compound, the survivor count [7] was 1 of 6, the survivor count [4] was 1 of 6 and the survivor count [8] was 0 of 6. The survivor count [2] was 0 of 6.
FC(F)(F)c1ccc(Cl)c(NC2=NCCCS2)c1 was tested, and the survivor count (dose: 150.0 mg/kg/injection, schedule: Q01DX009 (ip), vehicle: saline) was 5 of 6, the survivor count (dose: 300.0 mg/kg/injection, schedule: Q01DX009 (ip), vehicle: saline) was 0 of 6 and the survivor count [5] was 4 of 6.

Source: PubChem BioAssay AID248 (DTP/NCI, 2004)
